# Experimental data reported in PubChem BioAssay AID651640 (Broad Institute, 2012).
# “And” between values parts separate entries of the source, which are not always exact repeats. Equal values may be shown once. The whole screen tested about 350,000 compounds, of which about 6,000 (1.7%) were called active. Inconclusive results, whose numbers are uncertain, are shown with a selection of clear calls. No stated cut-off is given here; in the data, active means CPE inhibition above about 20% (passing the limit was not always enough); inconclusive means no clear call, values can overlap the other calls; tested in BHK-21 cells.
# Experiment: protection of cells from dengue 2 killing – plate reader, single concentration, primary screen (AID 651640);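 further: 0% = median of neutral control wells and 100% = median of positive control wells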
# Details: DENV2-infected cells, cytopathic effect rescue, at 9.99 µM, stronger effect = higher value
row,SMILES,CPE inhibition
1,O=S(=O)(NCC[C@@H]1CC[C@@H](NS(=O)(=O)c2ccccc2Cl)[C@H](CO)O1)c1ccc(F)cc1,inconclusive: 21.9%
2,C[C@H](CO)N1C[C@H](C)[C@H](CN(C)Cc2ccc(-c3ccccc3)cc2)Oc2ccc(NC(=O)CCCCCC(=O)Nc3ccccc3N)cc2CC1=O,inactive: 2.3%
3,C/C=C/c1ccc2c(c1)O[C@H](CN(C)CC1CCCC1)[C@@H](C)CN([C@H](C)CO)S2(=O)=O,inactive: -3.51%
4,O=C(O)c1cc(=O)[nH]c2c(Cl)cccc12,inconclusive: 27%
5,O=C(c1cnccn1)N1CC(=O)N2[C@H](CO)[C@@H](c3ccc(C#CC4CCCC4)cc3)[C@@H]2C1,inconclusive: 60.5%
6,O=C(C[C@@H]1C[C@@H]2c3cc(NC(=O)Nc4ccccc4F)ccc3O[C@@H]2[C@H](CO)O1)NC1CCCC1,active: 49.2%
7,C[C@@H]1CN([C@@H](C)CO)C(=O)c2c(c3ccccc3n2C)-c2ccccc2CO[C@@H]1CN(C)C,inconclusive: 42.2%
8,CC(=O)c1c(C)oc2ccc(NS(=O)(=O)c3ccccc3)cc12,inconclusive: 38.5%
9,CCCc1nn2c(=O)cc(CSCC(=O)Nc3nnc(C(C)C)s3)nc2s1,inconclusive: 36.6%
10,CO[C@H]1CN(C)C(=O)c2cc(NC(=O)c3cc(C)on3)ccc2OC[C@@H](C)NC[C@H]1C,inactive: -0.875%
11,c1ccc(N2CCN(Cc3cn4ccccc4n3)CC2)cc1,inconclusive: 26.6%
12,C[C@H]1CN([C@@H](C)CO)C(=O)c2cc(NS(=O)(=O)c3ccc(F)cc3)ccc2O[C@@H]1CN(C)CC1CC1,inactive: 6.54%
13,O=C(COC(=O)/C=C/c1cccc(Cl)c1)Nc1ccc2[nH]c(=O)[nH]c2c1,inconclusive: 35.7%
14,Cc1ccc2c(Cl)c(C)c(N3CCCC3)nc2n1,inactive: -5.96%
15,CCOc1ccc(S(=O)(=O)NCCC(=O)NCC(c2ccc(F)cc2)N2CCOCC2)cc1 (centres undefined),inconclusive: 26.7%
16,O=C(C1CCN(S(=O)(=O)c2ccccc2)CC1)N1CCC1,inconclusive: 34.3%
17,COc1ccccc1-c1ccc([C@@H]2[C@H](CO)N(C(C)=O)C23CN(C(C)=O)C3)cc1,active: 28.1%
18,CC(=O)N(C)C[C@H]1Oc2ncc(-c3ccccc3F)cc2C(=O)N([C@@H](C)CO)C[C@@H]1C,inconclusive: 20.3%
19,Cc1ccc2nc(-c3ccc(CN4CCC5(CC4)CNc4ccccc45)cc3)c(-c3ccccc3)nc2c1,inactive: -8.29%
20,COc1cc(CN(CC(C)C)S(=O)(=O)c2ccccc2Br)cc(OC)c1,inconclusive: 38%
21,O=C(O)C1=C[C@H](c2ccc(C(F)(F)F)cc2)C[C@H](OCCCCO)O1,inconclusive: 20.9%
22,COc1ccc2c3c([nH]c2c1)[C@@H](CO)N(C(=O)CN(C)C)CC31CN(CC2CCCC2)C1,active: 28.4%
23,CNC(=O)C[C@@H]1CC[C@@H]2[C@@H](COc3ccc(NS(=O)(=O)c4cccc(F)c4)cc3C(=O)N2C)O1,inconclusive: 79.2%
24,COc1ccc(S(=O)(=O)Nc2ccc3c(c2)C(=O)N([C@H](C)CO)C[C@H](C)[C@H](CN(C)Cc2ccncc2)OCCCC[C@H](C)O3)cc1,active: 48.1%
25,Cc1ccccc1-c1ccc(C2[C@@H]3CN(C(=O)Cc4ccncc4)C[C@H]2N3)cc1 (some centres undefined),active: 86% and inconclusive: 28.8%

# Shown with tabs: entries from further up
row	SMILES	CPE inhibition
5	O=C(c1cnccn1)N1CC(=O)N2[C@H](CO)[C@@H](c3ccc(C#CC4CCCC4)cc3)[C@@H]2C1	inconclusive: 60.5%
6	O=C(C[C@@H]1C[C@@H]2c3cc(NC(=O)Nc4ccccc4F)ccc3O[C@@H]2[C@H](CO)O1)NC1CCCC1	active: 49.2%
7	C[C@@H]1CN([C@@H](C)CO)C(=O)c2c(c3ccccc3n2C)-c2ccccc2CO[C@@H]1CN(C)C	inconclusive: 42.2%

# Exported tab-delimited: part of the list above
row	SMILES	CPE inhibition
8	CC(=O)c1c(C)oc2ccc(NS(=O)(=O)c3ccccc3)cc12	inconclusive: 38.5%
9	CCCc1nn2c(=O)cc(CSCC(=O)Nc3nnc(C(C)C)s3)nc2s1	inconclusive: 36.6%

# Remaining list, next part:

row,SMILES,CPE inhibition
1,COc1ccc(S(=O)(=O)N(C)C[C@H]2Oc3ccc(NS(=O)(=O)c4ccc(C)cc4)cc3C(=O)N([C@H](C)CO)C[C@@H]2C)cc1,inactive: 11.5%
2,O=C(C[C@@H]1CC[C@@H]2[C@H](COC[C@@H](O)CN2Cc2ccc(Oc3ccccc3)cc2)O1)N1CCCCC1,active: 23.9%
3,COC(=O)N1CCCc2cc(C)ccc21,inconclusive: 41.2%
4,CC(C)NC(=O)N(C)C[C@@H]1Oc2ccc(NS(C)(=O)=O)cc2C(=O)N([C@@H](C)CO)C[C@@H]1C,active: 20.4%
5,O=C(CNS(=O)(=O)c1ccccc1)OCC(=O)c1ccccc1Cl,inconclusive: 36.3%
6,O=S1(=O)CC(N2CCCCC2)CN1Cc1cn(Cc2cccc(Cl)c2)nn1 (centres undefined),inconclusive: 67.3%
7,Cc1ccc(-c2c(C(=O)N/N=C/C3CCCCC3)nnn2-c2nonc2N)cc1,inconclusive: 34.3%
8,COc1ccc2c3c(n(C)c2c1)[C@H](CO)N(C(=O)C1CCCC1)CC31CCN(C(=O)CC2CC2)CC1,inconclusive: 22.2%
9,Cc1ccc(-n2ncc3c(=O)[nH]c(SCC(=O)N4CC(=O)Nc5ccccc54)nc32)cc1,inconclusive: 20.8%
10,C[C@@H]1CN([C@H](C)CO)C(=O)c2cc(NC(=O)NC3CCCCC3)ccc2O[C@H]1CN(C)S(=O)(=O)c1cccs1,inactive: -7.93%
11,COc1ccc(C(=O)N2CCc3cc(OC)c(OC)cc3C2c2ccc(OC)c(OC)c2)cc1 (centres undefined),inconclusive: 32.7%
12,Cn1cc(SCC(=O)NC2CCCC2)c2ccccc21,inactive: -11.2%
13,CN1C(=O)c2cc(NC(=O)Cc3ccccc3)ccc2OC[C@H]2O[C@@H](CC(=O)O)CC[C@@H]21,inconclusive: 42.5%
14,COc1ccc(-c2cnc3c(c2)C(=O)N([C@@H](C)CO)C[C@H](C)[C@@H](CN(C)C)O3)cc1,inconclusive: 21.8%
15,C[C@@H]1CN([C@@H](C)CO)C(=O)c2cc(NC(=O)CCCCCC(=O)Nc3ccccc3N)ccc2O[C@@H]1CN(C)C,inactive: -0.668%
16,CCOc1ccc(N(CC(=O)N2CCOCC2)S(=O)(=O)c2ccc(SC)cc2)cc1,inconclusive: 32.3%
17,N=C1SCC(=O)N1c1ncc(Cc2ccccc2Cl)s1,inconclusive: 32.8%
18,O=C(c1ccc2c(=O)n3c(nc2c1)CCCCC3)N1CCN(c2ccc(Cl)cc2)CC1,inactive: 15.4%
19,COc1ccc2c3c([nH]c2c1)[C@@H](CO)N(C(=O)c1ccccn1)CC31CCN(C(=O)C2CCCC2)CC1,active: 23.5%
20,Cc1cccc(-c2nnc(NC(=O)c3ccco3)s2)c1,inconclusive: 32.1%
21,CC(SCC(=O)Nc1ccc(F)cc1)c1nc2ccccc2c(=O)[nH]1 (centres undefined),inconclusive: 25.2%
22,COc1ccc(CC(N)c2csc(NC(=O)Nc3cc(OC)ccc3OC)n2)cc1 (centres undefined),inactive: -7.88%
23,Cc1ccc(NC(=O)C2CCC(CNc3c(N4CCC(C)CC4)c(=O)c3=O)CC2)cc1F (centres undefined),inconclusive: 21.4%
24,Cc1cn([C@H]2C[C@H](O)[C@@H](CNCc3ccc4ncccc4c3)O2)c(=O)[nH]c1=O,active: 94.1%
25,O=C(CCS(=O)(=O)c1ccc(Br)s1)NCc1ccc2c(c1)OCO2,inconclusive: 24.6%

row,SMILES,CPE inhibition
1,CC1CCOC(c2coc3ccccc3c2=O)O1 (centres undefined),active: 33.3%
2,CC(=O)NC(c1cccc(F)c1)c1nc(-c2cc(F)cc(Cl)c2)cs1 (centres undefined),inconclusive: 48.3%
3,S=c1[nH]c(-c2ccccc2)cs1,inconclusive: 20.6%
4,CCc1cnc(N2[C@H](CO)[C@H](c3ccccc3)[C@@H]2C#N)s1,inconclusive: 38.5%
5,O=C(NC1CCCC1)C(C1CC1)n1c(C2CCCC2)nc2ccccc21 (centres undefined),active: 50.6%
6,Cc1ccc(Cc2c(-c3ccc(Cl)cc3)nc3c4ccccc4ccn23)cc1,inconclusive: 42.8%
7,O=[N+]([O-])c1ccc(C=NNC(=S)Nc2ccc(F)cc2)cc1,inconclusive: 33.3%
8,Cc1c(C(=O)N2CC(C(=O)N3CCCCC3)Oc3ccccc32)oc2ccccc12 (centres undefined),inconclusive: 111%
9,CC(=O)c1c(N2CCN(c3ccc(F)cc3)CC2)nc(=S)n(-c2ccccc2)c1C,active: 46.2%
10,CC(NC(=O)/C(C#N)=C/c1ccco1)c1ccccc1 (centres undefined),inconclusive: 68.1%
11,CCC(=O)Nc1ccc2c(c1)OC[C@H](C)N(CCC(F)(F)F)C[C@@H](C)[C@H](OC)CN(C)C2=O,active: 24.1%
12,Cc1onc(-c2ccccc2)c1C(=O)N(C)CC(=O)Nc1ccc(F)c(F)c1F,inconclusive: 32.9%
13,CO[C@@H]1CN(C)C(=O)c2cc(NC(=O)C3CC3)ccc2OC[C@@H](C)N(Cc2cncnc2)C[C@H]1C,inactive: 17.2%
14,CC1(C)CCC(=O)N2CC[C@H]3C[C@H](OC(=O)Nc4ccc(Br)cc4)C[C@@H]1[C@H]32,inconclusive: 21.4%
15,Cc1ccccc1OCCC(=O)OCC(=O)NCCc1ccc(S(N)(=O)=O)cc1,active: 47.5%
16,C[C@@H]1CN([C@@H](C)CO)S(=O)(=O)c2ccc(C#CC3CCCC3)cc2O[C@@H]1CN(C)Cc1cncnc1,inconclusive: 25.9%
17,CCS(=O)(=O)N1[C@H](CO)[C@H](c2ccc(C#Cc3ccccc3F)cc2)[C@@H]1C#N,inconclusive: 39.9%
18,Cc1ccc(C)c(OCCC(=O)Nc2cccc(S(=O)(=O)N3CCCCC3)c2)c1,inconclusive: 42.4%
19,N#C[C@@H]1[C@H](c2ccc(C3=CCCCC3)cc2)[C@H](CO)N1C(=O)NC1CCCC1,active: 27.4%
20,CC1CCCN(C(=O)CCS(=O)(=O)c2cc3c(cc2Cl)NC(=O)CO3)C1 (centres undefined),inconclusive: 28.4%
21,CCNC(=O)C[C@H]1CC[C@@H]2[C@H](COC[C@@H](O)CN2C(=O)C2CC2)O1,inconclusive: 23.5%
22,C[C@H](CO)N1C[C@H](C)[C@H](CN(C)CC2CCOCC2)Oc2cc(C#C[C@@H](C)O)ccc2S1(=O)=O,inconclusive: 18.2%
23,O=C(NC1CCC1)[C@H]1[C@H](CO)[C@H]2Cn3c(ccc(-c4ccccc4)c3=O)[C@H]2N1CCc1ccccc1,inactive: -12.2%
24,COc1cc(O)c(C(CCN2CCCC2)c2ccc(N(C)C)cc2)c(OC)c1 (centres undefined),inconclusive: 38.8%
